Residue numbers refer to the chain shown, from its start. Results are given in words; binding and its absence hold for the method and conditions named.
Columns and labels:
Assay in all cases: fluorescence polarisation; fluorescence anisotropy; FITC peptide at 6.7 nM, protein titrated (dilution series, factor 1.5); 25°C; 50 mM Tris-HCl pH 7.5, 250 mM NaCl, 0.5 mM TCEP with 0.67 mg/ml BSA, no detergent; 1:1 hyperbolic fit; both purified
[1] = molecular target: T1, FITC-labelled peptide ACBD5 MUT1 (not stated (human genes cloned from HepG2 RNA))
T1 sequence (peptide, FITC on the N-terminus): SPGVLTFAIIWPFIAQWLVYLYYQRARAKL

[2] = molecular target: T2, FITC-labelled peptide ACBD5 MUT2 (not stated (human genes cloned from HepG2 RNA))
T2 sequence (peptide, FITC on the N-terminus): T1 sequence (peptide, FITC on the N-terminus) with R25A, R27A

[3] = molecular target: T3, FITC-labelled peptide ACBD5 WT (not stated (human genes cloned from HepG2 RNA))
T3 sequence (peptide, FITC on the N-terminus): T1 sequence (peptide, FITC on the N-terminus) with A26R, A28R

Measured: binding

SurE
no binding: all assays above

— article PMC5450235, “Predicting the targeting of tail-anchored proteins to subcellular compartments in mammalian cells” (Journal of Cell Science, 2017)
